Measurements published in patent US20260256792A1, “TREATMENT OF CHRONIC SPONTANEOUS URTICARIA BY ADMINISTERING (R)-2-[3-[4-AMINO-3-(2-FLUORO-4-PHENOXY-PHENYL)PYRAZOLO[3,4-D]PYRIMIDIN-1-YL]PIPERIDINE-1-CARBONYL]-4-METHYL-4-[4-(OXETAN-3-YL)PIPERAZIN-1-YL]PENT-2-ENENITRILE” (priority 2023, published 2026).
The source gives many values for each of these; only a part stands here.

Tested on: moderate-to-severe chronic spontaneous urticaria (CSU)
Test: Phase 2 CSU study: urticaria activity score over 7 days (UAS7)
Assay type: in vivo, human
Design: key to UAS7 Change from baseline LS Mean (SE): UAS7 points; daily UAS score ranges 0–6 points/day, over 7 days
Text: The study comprises a 12 week, randomized, double-blind, placebo-controlled, multi-center, dose-ranging efficacy and safety phase, followed by a 40 week open label extension (OLE) phase (see FIG. 1). The study consists of three phases and an optional OLE phase. […] Clinically, CSU is characterized by the spontaneous and recurrent appearance of pruritic hives. The proposed primary endpoints were the UAS7 at Week 12 in EU and EU reference countries and the ISS7 in the US. Regardless of where a participant was from, all assessments were the same. The UAS7 score is a composite score containing both the HSS7 and the ISS7. This allowed a global assessment of the two key components of urticaria: hives and itch. […] The UAS is a validated PRO measure. […] The daily UAS scores range from 0 to 6 point/day. […] Patients were to complete the UAS using the e-diary. […] The following secondary endpoints were to be analyzed using the same approach as for the primary endpoint: • Change from baseline in UAS7 at Week 4 • Change from baseline in UAS7 at Week 12 (for US and US reference countries) • Change from baseline in ISS7 at Week 12 (except US and US reference countries) • Change from baseline in HSS7 at Week 12 The following responder secondary endpoints were to be analyzed using the Cochran-Mantel-Haenszel test adjusted by region: • Proportion of participants with UAS7<6 at Week 12 • Proportion of participants with UAS7=0 at Week 12 Participants who received selected prohibited medications and/or rescue medications were to be considered as non-responders for time points after the medication usage. For other participants, all available data including those collected during the off-treatment period were to be used to determine the responder/non-responder status. Missing data were to be considered as non-responders.

[1] = Omalizumab-Naïve Population with Outlier Removed, 400 mg QPM, Week 8
[2] = Omalizumab-Naïve Population with Outlier Removed, 400 mg QPM, Week 9
[3] = Omalizumab-Naïve Population with Outlier Removed, 400 mg QPM, Week 10
[4] = Omalizumab-Naïve Population with Outlier Removed, 400 mg QPM, Week 11
[5] = Omalizumab-Naïve Population with Outlier Removed, 400 mg QPM, Week 12
[6] = Omalizumab-Naïve Population with Outlier Removed, 400 mg TID, Week 1
[7] = Omalizumab-Naïve Population with Outlier Removed, 400 mg TID, Week 2
[8] = Omalizumab-Naïve Population with Outlier Removed, 400 mg TID, Week 3
[9] = Omalizumab-Naïve Population with Outlier Removed, 400 mg TID, Week 4
[10] = Omalizumab-Naïve Population with Outlier Removed, 400 mg TID, Week 5
[11] = Omalizumab-Naïve Population with Outlier Removed, 400 mg TID, Week 6
[12] = Omalizumab-Naïve Population with Outlier Removed, 400 mg TID, Week 7
[13] = Omalizumab-Naïve Population with Outlier Removed, 400 mg TID, Week 8
[14] = Omalizumab-Naïve Population with Outlier Removed, 400 mg TID, Week 9
[15] = Omalizumab-Naïve Population with Outlier Removed, 400 mg TID, Week 10
[16] = Omalizumab-Naïve Population with Outlier Removed, 400 mg TID, Week 11
[17] = Omalizumab-Naïve Population with Outlier Removed, 400 mg TID, Week 12
[18] = Omalizumab-Naïve Population, 400 mg BID, Week 5
[19] = Omalizumab-Naïve Population, 400 mg BID, Week 6
[20] = Omalizumab-Naïve Population, 400 mg BID, Week 7

In the case of `CC(C)(C=C(C#N)C(=O)N1CCC[C@@H](n2nc(-c3ccc(Oc4ccccc4)cc3F)c3c(N)ncnc32)C1)N1CCN(C2COC2)CC1` [rilzabrutinib, (R)-2-[3-[4-amino-3-(2-fluoro-4-phenoxy-phenyl)pyrazolo[3,4-d]pyrimidin-1-yl]piperidine-1-carbonyl]-4-methyl-4-[4-(oxetan-3-yl)piperazin-1-yl]pent-2-enenitrile], the “UAS7 % Change from baseline LS Mean (SE)” value [1] is reported as −35.12 (6.14) %, the “UAS7 Change difference for rilzabrutinib vs. placebo LS Mean (95% CI)” value (shortened to “UAS7 Change difference … (95% CI)”) [1] is reported as −0.58 (−5.54, 4.37) and the “UAS7 Change from baseline LS Mean (SE)” value [1] is reported as −10.60 (1.81). For the same compound, the “UAS7 % Change difference for rilzabrutinib vs. placebo LS Mean (95% CI)” value (“UAS7 % Change difference … (95% CI)” for short) [2] was −9.02 %, the “UAS7 % Change from baseline LS Mean (SE)” value [2] was −35.85 (6.16) % and the “UAS7 Change difference … (95% CI)” value [2] was −2.25 (−7.32, 2.82). The “UAS7 % Change difference … (95% CI)” value [3] was −6.86 %, the “UAS7 % Change from baseline LS Mean (SE)” value [3] was −37.24 (6.37) % and the “UAS7 Change difference … (95% CI)” value [3] was −1.84 (−7.00, 3.33). The “UAS7 % Change difference … (95% CI)” value [4] was −7.69 %, the “UAS7 % Change from baseline LS Mean (SE)” value [4] was −36.00 (6.57) % and the “UAS7 Change from baseline LS Mean (SE)” value [4] was −10.76 (1.90). The “UAS7 % Change difference … (95% CI)” value [5] was −3.75 %, the “UAS7 % Change from baseline LS Mean (SE)” value [5] was −34.40 (6.66) % and the “UAS7 Change difference … (95% CI)” value [5] was 0.08 (−5.29, 5.46). The “UAS7 Change from baseline LS Mean (SE)” value [5] was −9.93 (1.96), the “UAS7 % Change difference … (95% CI)” value [6] was −27.32 % and the “UAS7 % Change from baseline LS Mean (SE)” value [6] was −36.85 (5.65) %. For the same compound, the “UAS7 Change difference … (95% CI)” value [6] was −7.98 (−13.13, −2.83), the “UAS7 Change from baseline LS Mean (SE)” value [6] was −11.59 (1.59) and the “UAS7 % Change difference … (95% CI)” value [7] was −27.17 %. For the same compound, the “UAS7 % Change from baseline LS Mean (SE)” value [7] was −44.94 (5.49) %, the “UAS7 Change difference … (95% CI)” value [7] was −7.96 (−12.18, −3.73) and the “UAS7 Change from baseline LS Mean (SE)” value [7] was −13.89 (1.58). For the same compound, the “UAS7 % Change difference … (95% CI)” value [8] was −27.10 %, the “UAS7 % Change from baseline LS Mean (SE)” value [8] was −47.26 (5.69) % and the “UAS7 Change difference … (95% CI)” value [8] was −7.70 (−12.10, −3.31). The “UAS7 Change from baseline LS Mean (SE)” value [8] was −14.55 (1.64), the “UAS7 % Change difference … (95% CI)” value [9] was −26.13 % and the “UAS7 % Change from baseline LS Mean (SE)” value [9] was −46.87 (5.93) %. The “UAS7 Change difference … (95% CI)” value [9] was −7.25 (−11.83, −2.67), the “UAS7 Change from baseline LS Mean (SE)” value [9] was −14.31 (1.71) and the “UAS7 % Change difference … (95% CI)” value [10] was −19.26 %. For the same compound, the “UAS7 % Change from baseline LS Mean (SE)” value [10] was −51.99 (5.73) %, the “UAS7 Change difference … (95% CI)” value [10] was −5.61 (−10.23, −0.99) and the “UAS7 Change from baseline LS Mean (SE)” value [10] was −16.07 (1.72). The “UAS7 % Change difference … (95% CI)” value [11] was −23.48 %, the “UAS7 % Change from baseline LS Mean (SE)” value [11] was −50.57 (6.35) % and the “UAS7 Change from baseline LS Mean (SE)” value [11] was −15.69 (1.88). For the same compound, the “UAS7 % Change difference … (95% CI)” value [12] was −24.12 %, the “UAS7 % Change from baseline LS Mean (SE)” value [12] was −52.77 (6.02) % and the “UAS7 Change from baseline LS Mean (SE)” value [12] was −16.24 (1.78). For the same compound, the “UAS7 % Change difference … (95% CI)” value [13] was −20.31 %, the “UAS7 % Change from baseline LS Mean (SE)” value [13] was −51.40 (6.43) % and the “UAS7 Change difference … (95% CI)” value [13] was −5.68 (−10.80, −0.56). The “UAS7 Change from baseline LS Mean (SE)” value [13] was −15.70 (1.90), the “UAS7 % Change difference … (95% CI)” value [14] was −25.28 % and the “UAS7 % Change from baseline LS Mean (SE)” value [14] was −52.11 (6.55) %. For the same compound, the “UAS7 Change difference … (95% CI)” value [14] was −7.36 (−12.59, −2.14), the “UAS7 Change from baseline LS Mean (SE)” value [14] was −16.22 (1.96) and the “UAS7 % Change difference … (95% CI)” value [15] was −23.84 %. For the same compound, the “UAS7 % Change from baseline LS Mean (SE)” value [15] was −54.21 (6.69) %, the “UAS7 Change difference … (95% CI)” value [15] was −6.91 (−12.19, −1.64) and the “UAS7 Change from baseline LS Mean (SE)” value [15] was −16.56 (1.98). For the same compound, the “UAS7 % Change difference … (95% CI)” value [16] was −24.83 %, the “UAS7 % Change from baseline LS Mean (SE)” value [16] was −53.14 (6.75) % and the “UAS7 Change difference … (95% CI)” value [16] was −7.03 (−12.30, −1.76). The “UAS7 Change from baseline LS Mean (SE)” value [16] was −16.34 (1.95), the “UAS7 % Change difference … (95% CI)” value [17] was −26.35 % and the “UAS7 % Change from baseline LS Mean (SE)” value [17] was −57.01 (7.01) %. The “UAS7 Change difference … (95% CI)” value [17] was −7.50 (−13.02, −1.97), the “UAS7 Change from baseline LS Mean (SE)” value [17] was −17.50 (2.06) and the “UAS7 % Change difference … (95% CI)” value [18] was −8.73%. The “UAS7 % Change from baseline LS Mean (SE)” value [18] was −41.58 (5.68) %, the “UAS7 Change difference … (95% CI)” value [18] was −1.60 and the “UAS7 Change from baseline LS Mean (SE)” value [18] was −12.04 (1.72). The “UAS7 % Change difference … (95% CI)” value [19] was −14.68%, the “UAS7 % Change from baseline LS Mean (SE)” value [19] was −41.23 (6.32) % and the “UAS7 Change difference … (95% CI)” value [19] was −3.03. The “UAS7 Change from baseline LS Mean (SE)” value [19] was −12.21 (1.87), the “UAS7 % Change difference … (95% CI)” value [20] was −18.46% and the “UAS7 % Change from baseline LS Mean (SE)” value [20] was −47.01 (5.97) %. The “UAS7 Change difference … (95% CI)” value [20] was −4.51 and the “UAS7 Change from baseline LS Mean (SE)” value [20] was −13.94 (1.77).
